Reference: the supplement of paper PMC8728848
The list shows a part of the results.

Columns and labels:
Experiment in all cases: glycan array binding signal (z-score within array); higher = stronger binding
Details in all cases: glycan notation: IUPAC condensed, linker removed
[1] = target: Neu5Ac(a2-3)Gal(b1-4)GlcNAc
Method in brief: (§1)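 Negative Z-scores can be read as non-binding. The Z-score is calculated within each array and then averaged across arrays of one protein sequence at different concentrations or buffers and across linkers. Arrays, 3228 in all, were curated from the Consortium for Functional Glycomics database and kept only where the protein sequence was available.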

[2] = target: Neu5Ac(a2-3)Gal(b1-4)GlcNAc(b1-2)Man
Method in brief: as §1

[3] = target: Neu5Ac(a2-3)Gal(b1-4)GlcNAc(b1-2)Man(a1-3)[GlcNAc(b1-4)][Neu5Ac(a2-3)Gal(b1-4)GlcNAc(b1-2)Man(a1-6)]Man(b1-4)GlcNAc(b1-4)GlcNAc
Method in brief: as §1

[4] = target: Neu5Ac(a2-3)Gal(b1-4)GlcNAc(b1-2)Man(a1-3)[Neu5Ac(a2-3)Gal(b1-4)GlcNAc(b1-2)Man(a1-6)]Man(b1-4)GlcNAc(b1-4)GlcNAc
Method in brief: as §1

[5] = target: Neu5Ac(a2-3)Gal(b1-4)GlcNAc(b1-2)Man(a1-3)[Neu5Ac(a2-3)Gal(b1-4)GlcNAc(b1-2)Man(a1-6)]Man(b1-4)GlcNAc(b1-4)[Fuc(a1-6)]GlcNAc
Method in brief: as §1

[6] = target: Neu5Ac(a2-3)Gal(b1-4)GlcNAc(b1-2)Man(a1-3)[Neu5Ac(a2-6)Gal(b1-4)GlcNAc(b1-2)Man(a1-6)]Man(b1-4)GlcNAc(b1-4)GlcNAc
Method in brief: as §1

[7] = target: Neu5Ac(a2-3)Gal(b1-4)GlcNAc(b1-2)[Neu5Ac(a2-3)Gal(b1-4)GlcNAc(b1-4)]Man(a1-3)[GlcNAc(b1-4)][Neu5Ac(a2-3)Gal(b1-4)GlcNAc(b1-2)[Neu5Ac(a2-3)Gal(b1-4)GlcNAc(b1-6)]Man(a1-6)]Man(b1-4)GlcNAc(b1-4)GlcNAc
Method in brief: as §1

[8] = target: Neu5Ac(a2-3)Gal(b1-4)GlcNAc(b1-2)[Neu5Ac(a2-3)Gal(b1-4)GlcNAc(b1-4)]Man(a1-3)[GlcNAc(b1-4)][Neu5Ac(a2-3)Gal(b1-4)GlcNAc(b1-4)Man(a1-6)]Man(b1-4)GlcNAc(b1-4)GlcNAc
Method in brief: as §1

[9] = target: Neu5Ac(a2-3)Gal(b1-4)GlcNAc(b1-2)[Neu5Ac(a2-3)Gal(b1-4)GlcNAc(b1-6)]Man(a1-6)[Neu5Ac(a2-3)Gal(b1-4)GlcNAc(b1-2)Man(a1-3)]Man(b1-4)GlcNAc(b1-4)GlcNAc
Method in brief: as §1

[10] = target: Neu5Ac(a2-3)Gal(b1-4)GlcNAc(b1-2)[Neu5Ac(a2-3)Gal(b1-4)GlcNAc(b1-6)]Man(a1-6)[Neu5Ac(a2-3)Gal(b1-4)GlcNAc(b1-2)Man(a1-3)][GlcNAc(b1-4)]Man(b1-4)GlcNAc(b1-4)GlcNAc
Method in brief: as §1

[11] = target: Neu5Ac(a2-3)Gal(b1-4)GlcNAc(b1-3)Gal
Method in brief: as §1

[12] = target: Neu5Ac(a2-3)Gal(b1-4)GlcNAc(b1-3)Gal(b1-3)GlcNAc
Method in brief: as §1

[13] = target: Neu5Ac(a2-3)Gal(b1-4)GlcNAc(b1-3)Gal(b1-4)GlcNAc
Method in brief: as §1

[14] = target: Neu5Ac(a2-3)Gal(b1-4)GlcNAc(b1-3)Gal(b1-4)GlcNAc(b1-2)Man(a1-3)[Neu5Ac(a2-3)Gal(b1-4)GlcNAc(b1-3)Gal(b1-4)GlcNAc(b1-2)Man(a1-6)]Man(b1-4)GlcNAc(b1-4)GlcNAc
Method in brief: as §1

[15] = target: Neu5Ac(a2-3)Gal(b1-4)GlcNAc(b1-3)Gal(b1-4)GlcNAc(b1-3)Gal(b1-4)GlcNAc
Method in brief: as §1

[16] = target: Neu5Ac(a2-3)Gal(b1-4)GlcNAc(b1-3)Gal(b1-4)GlcNAc(b1-3)Gal(b1-4)GlcNAc(b1-2)Man(a1-3)[Neu5Ac(a2-3)Gal(b1-4)GlcNAc(b1-3)Gal(b1-4)GlcNAc(b1-3)Gal(b1-4)GlcNAc(b1-2)Man(a1-6)]GalNAc
Method in brief: as §1

[17] = target: Neu5Ac(a2-3)Gal(b1-4)GlcNAc(b1-3)Gal(b1-4)GlcNAc(b1-3)GalNAc
Method in brief: as §1

[18] = target: Neu5Ac(a2-3)Gal(b1-4)GlcNAc(b1-3)Gal(b1-4)GlcNAc(b1-3)[Neu5Ac(a2-3)Gal(b1-4)GlcNAc(b1-3)Gal(b1-4)GlcNAc(b1-6)]GalNAc
Method in brief: as §1

[19] = target: Neu5Ac(a2-3)Gal(b1-4)GlcNAc(b1-3)Gal(b1-4)GlcNAc(b1-6)[Gal(b1-3)]GalNAc
Method in brief: as §1

[20] = target: Neu5Ac(a2-3)Gal(b1-4)GlcNAc(b1-3)Gal(b1-4)[Fuc(a1-3)]GlcNAc
Method in brief: as §1

[21] = target: Neu5Ac(a2-3)Gal(b1-4)GlcNAc(b1-3)GalNAc
Method in brief: as §1

[22] = target: Neu5Ac(a2-3)Gal(b1-4)GlcNAc(b1-3)[Neu5Ac(a2-3)Gal(b1-4)GlcNAc(b1-6)]GalNAc
Method in brief: as §1

[23] = target: Neu5Ac(a2-3)Gal(b1-4)GlcNAc(b1-6)GalNAc
Method in brief: as §1

B1: HFR-3 (Triticum aestivum) (protein)
chain: MKGLLLCALALAFAAVTTHAQLQSCPTRCGKQADGMECPNNLCCSKDGYCGLGVDYCSAGAGCQSGACYDNKICGAQANGTLCRNNHCCSSGGRCGYGREYCSNGCQGGPCWADLKCGHLDNGKLCPNNLCCSQYGYCGLGPEFCGTGCQNGACSTDKPCGNKANGAPCTNNYCCSQYGSCGLGKDYCGTGCQNGACN
B1 was tested, and the “glycan array binding signal (z-score)” value [1] was -0.047, the “glycan array binding signal (z-score)” value [2] was -0.287 and the “glycan array binding signal (z-score)” value [3] was -0.775. For the same binder, the “glycan array binding signal (z-score)” value [4] was -1.67, the “glycan array binding signal (z-score)” value [5] was 0.846 and the “glycan array binding signal (z-score)” value [6] was 0.904. For the same binder, the “glycan array binding signal (z-score)” value [7] was -0.604, the “glycan array binding signal (z-score)” value [8] was -1.37 and the “glycan array binding signal (z-score)” value [9] was 1.69. For the same binder, the “glycan array binding signal (z-score)” value [10] was -1.14, the “glycan array binding signal (z-score)” value [11] was 0.371 and the “glycan array binding signal (z-score)” value [12] was 0.04. For the same binder, the “glycan array binding signal (z-score)” value [13] was -0.856, the “glycan array binding signal (z-score)” value [14] was 0.192 and the “glycan array binding signal (z-score)” value [15] was 0.099. For the same binder, the “glycan array binding signal (z-score)” value [16] was 0.113, the “glycan array binding signal (z-score)” value [17] was -1.41 and the “glycan array binding signal (z-score)” value [18] was 0.555. The “glycan array binding signal (z-score)” value [19] was -0.697, the “glycan array binding signal (z-score)” value [20] was -0.597 and the “glycan array binding signal (z-score)” value [21] was -0.063. For the same binder, the “glycan array binding signal (z-score)” value [22] was -1.27 and the “glycan array binding signal (z-score)” value [23] was -0.05.
